According to publication PMC7488466:

Assays:
Assay in all cases: two-hybrid; Matchmaker GAL4 Two-Hybrid System 3 (Clontech); phyllogens fused to the DNA-binding domain (bait), MTFs and RAD23C/D fused to the activation domain (prey); graded by yeast growth on -LW, -LWH, -LWH+3AT and all media
[1] = molecular target: PHYL1FBP fused to the GAL4 DNA-binding domain (Ca. P. aurantifolia FBP strain)
[2] = molecular target: PHYL1JWB fused to the GAL4 DNA-binding domain (Ca. P. ziziphi JWB strain)
[3] = molecular target: PHYL1MD fused to the GAL4 DNA-binding domain (Ca. P. asteris MD strain)
[4] = molecular target: PHYL1PWB fused to the GAL4 DNA-binding domain
[5] = molecular target: PHYL1PYR fused to the GAL4 DNA-binding domain
[6] = molecular target: PHYL1PnWB fused to the GAL4 DNA-binding domain (Ca. P. aurantifolia PnWB strain)
[7] = molecular target: PHYL1PvWB fused to the GAL4 DNA-binding domain (Ca. P. asteris PvWB strain)
[8] = molecular target: PHYL1SY fused to the GAL4 DNA-binding domain (Ca. P. fragariae SY strain)
[9] = molecular target: PHYL1OY fused to the GAL4 DNA-binding domain (Ca. P. asteris OY strain)
[10] = molecular target: PHYL1SY Q30K/R64N fused to the GAL4 DNA-binding domain (Ca. P. fragariae SY strain)
[11] = molecular target: PHYL1SY R64N fused to the GAL4 DNA-binding domain (Ca. P. fragariae SY strain)

| Binder | binding [1] | binding [2] | binding [3] | binding [4] | binding [5] | binding [6] | binding [7] | binding [8] | binding [9] | binding [10] | binding [11] |
| --- | --- | --- | --- | --- | --- | --- | --- | --- | --- | --- | --- |
| RAD23C fused to the GAL4 activation domain (protein, UniProt Q84L31 1-419) MKIFVKTLKGTHFEIEVKPEDSVVDVKKNIESVQGADVYPAAKQMLIHQGKVLKDETTIEENKVAENSFIVIMMNKSKPASAAASSASAGTSQAKSIPPSTSQPSISPQTPASVSAPVAPAPTRPPPPAPTPTPAPVAATETVTTPIPEPVPATISSSTPAPDSAPVGSQGDVYGQAASNLAAGSNLESTIQQILDMGGGTWDRETVVLALRAAFNNPERAVEYLYTGIPEQAEVPPVARPPASAGQPANPPAQTQQPAAAPASGPNANPLDLFPQGLPNVGGNPGAGTLDFLRNSQQFQALRAMVQANPQVLQPMLQELGKQNPNLMRLIQDHQADFLRLINEPVEGGGESGNLLGQMAAGMPQPQAIQVTHEEREAIERLEAMGFERALVLEVFFACNKNEELAANYLLDHMHEFEE | binds | binds | binds | binds | no binding | binds | binds | binds | – | – | – |
| RAD23D fused to the GAL4 activation domain (protein, UniProt Q84L30 1-378) MKIFVKTLSGSNFEIEVKPADKVSDVKTAIETVKGAEYPAAKQMLIHQGKVLKDETTLEENNVVENSFIVIMLSKTKASPSGASTASAPAPSATQPQTVATPQVSAPTASVPVPTSGTATAAAPATAASVQTDVYGQAASNLVAGTTLESTVQQILDMGGGSWDRDTVVRALRAAFNNPERAVEYLYSGIPAQAEIPPVAQAPATGEQAANPLAQPQQAAAPAAATGGPNANPLNLFPQGMPAADAGAGAGNLDFLRNSQQFQALRAMVQANPQILQPMLQELGKQNPQLVRLIQEHQADFLRLINEPVEGEENVMEQLEAAMPQAVTVTPEEREAIERLEGMGFDRAMVLEVFFACNKNEELAANYLLDHMHEFEDQ | binds | binds | binds | binds | no binding | binds | binds | binds | binds | – | – |
| SEP4 (aa 57-257) fused to the GAL4 activation domain (domain or fragment, UniProt P29383 57-257) FCSSPSGMARTVDKYRKHSYATMDPNQSAKDLQDKYQDYLKLKSRVEILQHSQRHLLGEELSEMDVNELEHLERQVDASLRQIRSTKARSMLDQLSDLKTKEEMLLETNRDLRRKLEDSDAALTQSFWGSSAAEQQQQHQQQQQGMSSYQSNPPIQEAGFFKPLQGNVALQMSSHYNHNPANATNSATTSQNVNGFFPGWM | binds | binds | no binding | binds | no binding | binds | no binding | no binding | – | binds | binds |

These are yes or no findings as the source states them, for the method shown. For part of these data: Binding can be weak; no strength is given. Tags and fused reporters may be left off the sequences shown.
